The list shows a part of the results.
What was measured:
Assay in all cases: EMSA with sequencing
Settings in all cases: 10 mM Tris-Cl pH 7.5, 50 mM NaCl, 1 mM DTT, 0.25 mg/ml BSA, 2 mM MgCl2, 0.025% Nonidet P-40, 5% glycerol; 28 nM nucleosome library; 10 min on ice then 30 min …; high values mean tight binding; double strand, one strand shown
KLF4 + histone octamer = tested on: KLF4 + histone octamer
OCT4 + histone octamer = tested on: OCT4 + histone octamer
SOX2 + histone octamer = tested on: SOX2 + histone octamer
[1] = tested on: c-MYC + MAX + histone octamer

| Sequence | binding signal (log2 relative supershift) (KLF4 + histone octamer) | binding signal (log2 relative supershift) (OCT4 + histone octamer) | binding signal (log2 relative supershift) (SOX2 + histone octamer) | binding signal (log2 relative supershift) [1] |
| --- | --- | --- | --- | --- |
| GATGGACCCTATACGCGGCGCAGCTCACAGTATGTTGAAACAAGCTGCTAAGGGGCACAGAGGTGGAGAGCGAGTAGGTTTGTGTGTGCAGATGGGACAAGGTGGGGACGTGAGAAGAAAGGGAGCTCAGGCCACATGGCAGTGGACACTGAGTGAGAATGCTGCCAGGTTATACAGACCCACCCTAGAGTTGGCTTGCTCATTTGTAAATGCCAGTCGGATAGTGTTCC | 1.97 | 0.449 | 0.28 | 0.345 |
| GATGGACCCTATACGCGGCGTGAAAATAAAGACGTGATTTTTTTCCCTATCCAAATATATGATCCCTGAATTCTATCCATGAACCCAAGGTTTAGAATGTCTGTTGTGTGATGTGCTCATACCTTAAAAAGGAGTGTGGGGGAGTGGGCGAATGTGCACGTGTGTATGTTCATGCATGTGCATGTGAGTAGAGGGGTGGGGAGAGAGGGATGCCAGTCGGATAGTGTTCC | 1.16 | 0.119 | 1.09 | 0.332 |
| GATGGACCCTATACGCGGCTCCATGGGTGCAGCAAGAGTGACAATACATCACAGCCTCGACATCTGTGACAAGCCCAGCCTTTTGACAGTCTAGTGAGGGGGTGTGCATCTTGAATATTACCAGATGTGTCACAATCTTTGTTCCCCAAATACTTACTCCCTTTTGGATAACAAAACAGCAGAAGACACTACTCAGAACAATTAAAAAGGTGCCAGTCGGATAGTGTTCC | 1.58 | 0.0312 | 1.83 | 0.419 |
| GATGGACCCTATACGCGGCTCCCCAGTGCTCTCCAGAATGTGACGATGGATGGACTTGAATAAAAATGCTTAGTGAGAATCTGTTGCATTCATTTACCTCCCAATGAGCTCCTTTGGGGACATGTATGGGATAAAGGACAGAAGGCCCAGCAGAAGCATGAGGACAGTTAAAAGTTTTTGCACATCTTCAGGGGAAGGGAGAAGGAGGCTTGCCAGTCGGATAGTGTTCC | 1.1 | 0.0182 | 0.0817 | 0.0607 |
| GATGGACCCTATACGCGGCTACGAAACTGATGAGGGCTGGGCGTCTCATTTACATAAGGTGTGAATTTCTGGTACCTCCACCCCGTCCTGCTAGTGTACATGTGGGCCCTTAGCTTGAGTTACTCCATAATGCTTTGTTCCCCTTACTGCACATGTGTTAGGGGATGGAATTTTCCATTGTGGCCATGTCTGGGCAAGTCATCTCTGTAATGCCAGTCGGATAGTGTTCC | 2 | 1.07 | 1.24 | 0.115 |
| GATGGACCCTATACGCGGCGAATTGTGCACACACACACACACACACACACCACCTCCCACCCAATTCTTATGCTGAAGTCCTAACTCCCAGTATCCTGGAATGTGACCTTATTGAAATGGGTCATTGCAGATGCAATTAGTTAAGATGAAGTCATACTGGAATAGGTTGGGCCTCTAATTTGAACAACTAGTGTCCTTATAAAAAGGGGATGCCAGTCGGATAGTGTTCC | 2.43 | 0.252 | 1.58 | 0.149 |
| GATGGACCCTATACGCGGCCTAATGGTTTTACATAGTGTAATCTGCACTTCAAAATAGCGAAGGGAAGCCCTACCTCATTATTCTACTTTTCCAGAATTCTCCTGGCTATTCCAGGCTGCATGTTTACCTTAACCTTCCCTGTGATGTCTTCATGCCGTTGTCTTCTTATGCAAGAATAAGGTACGTCTTTCCATCCACTCACGTCTATTTGCCAGTCGGATAGTGTTCC | 1.05 | 0.595 | 0.675 | 0.575 |
| GATGGACCCTATACGCGGCGAGGGTGGATAAGAAACACACAGGTGGGACGGTTAACAACATCAGGAGCTGTGGCTTTATGGAAATTTATGTAAGCATGATGAATTGCACACAGCCATTTGTCTCTATTCCCTCCTAACCCTCCATGAAAGTGACAGGAAAGGGACAAAAAGACATTGGCGCACAAAAGCGAAGAGAACATGAAAGGAGTCTGCCAGTCGGATAGTGTTCC | 2.02 | 0.215 | 1.34 | 0.31 |
| GATGGACCCTATACGCGGCTCTCCTTCTCCCTGTGAACATGGCTTCTGGTGGTGAGAGCCAGTTTGCATTCATTCTTTGATGTGAATGCTCTGATTCAGTAGCTCTCAACTTGTTTTCTGCTACAACACAGATGGCTTTCACATGCCTCACACCCTCACAGGGGGGTATCCAGGGTTATGCAAAATTGAAGCAAGCTACTTGTAATTCCATGCCAGTCGGATAGTGTTCC | 1.28 | 0.846 | 0.331 | 0.236 |
| GATGGACCCTATACGCGGCGAGCAGAGTCAAAGGGTTGGGTATTGGCTCCATGCTACAACTTTCCACTAGGCAAAACAGAGCCTCTCCAAATAGCTGCTTGTGATAGACATGATTATCTCAATTGCATAGGATTGTTAACAAGACAAAGGAAATGGTATACCTAATAAGCATTTGATAAGGTGTAGACAGAAATCCTGATTTTGTTGTTATGCCAGTCGGATAGTGTTCC | 2.07 | 0.363 | 1 | 0.15 |
| GATGGACCCTATACGCGGCTTTCTGCTTGTGTAACTGAATGATTCTCCTGAATTTACAGCTTCTACCCCTCTATCAGTCATTGTGACAGCACTTCACGGCAATACAACAAGAGAGATTGAAGACAAAGACAACTGATCTGCCCACCAGTCAGATGTGATTACAGCTCTGCACATCAATGTTTAGATTATAAGGCAGTGTATACCATCTTTTGCCAGTCGGATAGTGTTCC | 1.12 | 0.469 | 1.11 | 0.577 |
